This is one part of the list.
experiment: compounds boosting herpes simplex virus growth – fold increase, host cell viability (AID 1956); conditions: HSV replication augmentation in cells; fold increase: measured here: primary screen fold increase 10 uM, at 10 µM, stronger effect = higher value; viability: measured here: host cell viability series, at 25 µM, stronger effect = lower value; note: tested in PC3 cells

Row | Structure (SMILES) | fold increase
1 | O=P1(Nc2ncccn2)COc2ccccc2OC1 | 0.73
2 | CN1CCCCC1COC(=O)C1(O)c2ccccc2CCc2ccccc21 (centres undefined) | 0.79
3 | COc1ccccc1OP(C)(=O)Nc1c(C)cccc1C (centres undefined) | 1.16
4 | O=P1(Nc2ccc(Br)cn2)COc2ccccc2OC1 | 0.87
5 | Cc1ccc(OCC(=O)OC2CN3CCC2CC3)cc1 (centres undefined) | 0.947
6 | O=[As](O)(c1cccs1)c1cccs1 | 1.09
7 | CP(=O)(Nc1ccc(SC(F)(F)F)cc1)Oc1ccccc1 (centres undefined) | 0.97
8 | CCCOc1ccc(NP(C)(=O)Oc2ccc(Cl)cc2)cc1 (centres undefined) | 0.89
9 | COc1cc(C2NCCC3(OCCO3)C2(C)C)cc(OC)c1OC.O=[N+]([O-])c1cc([N+](=O)[O-])c(O)c([N+](=O)[O-])c1 (centres undefined) | 0.95
10 | CC1CCC(C(C)C)C(OP(=O)(Nc2ccccn2)c2ccccc2)C1 (centres undefined) | 0.92
11 | Cc1nn(-c2ccccc2)c2c1P(=O)(N1CCOCC1)N(C)C(c1ccccc1)=N2 (centres undefined) | 1.12
12 | O=C(/C=C/c1ccccc1)OC1CN2CCC1CC2 (centres undefined) | 1.01
13 | CCOC(=O)C(CC)C1=NC(C)(C)Cc2ccccc21.O=[N+]([O-])c1cc([N+](=O)[O-])c(O)c([N+](=O)[O-])c1 (centres undefined) | 0.85
14 | O=[N+]([O-])c1cc([N+](=O)[O-])c(Nc2nnnn2CCO)c([N+](=O)[O-])c1 | 0.93
15 | CN(C)C1(CNC(=O)c2ccc(S(C)(=O)=O)cc2)CCCCC1 | 0.99
16 | CC1(CBr)Cn2c(nc3ccccc3c2=O)S1 (centres undefined) | 0.93
17 | Cc1nc2ccc3ccccc3c2s1.O=[N+]([O-])c1cc([N+](=O)[O-])c(O)c([N+](=O)[O-])c1 | 0.93
18 | O=[As](O)(c1ccccc1Br)c1ccccc1Br | 1.12
19 | CN(C(=O)Cc1ccc(Cl)c(Cl)c1)[C@@H]1CCCC[C@H]1N1CCCC1 | 1.06
20 | CC(C)/C=N\N=C(\N)N[N+](=O)[O-] | 0.92
21 | CN(CCCl)Cc1cc(Cl)c(NC2=NCCN2)c(Cl)c1 | 0.75
22 | CCOP(=O)(Nc1ccc(C)cn1)OCC | 0.99
23 | O=[N+]([O-])c1cc([N+](=O)[O-])c(-n2nnc3ccccc32)c([N+](=O)[O-])c1 | 0.96
24 | O=P1(Nc2ccccn2)COc2ccccc2OC1 | 0.88
25 | CC(C)(C)C(=O)NC(Sc1ncccn1)C(Cl)(Cl)Cl (centres undefined) | 1.11

Row | Structure (SMILES) | fold increase
26 | Clc1n[nH]nc1-c1nn[nH][15n]1 | 0.78
27 | CCCOP(=S)(Nc1nc(N)cc(=O)[nH]1)OCCC | 0.93
28 | Cc1ccc(C)c(NP(C)(=O)Oc2ccccc2)c1 (centres undefined) | 0.95
29 | Cc1ccc(NCCc2c([N+](=O)[O-])cc([N+](=O)[O-])cc2[N+](=O)[O-])cc1 | 0.77
30 | CP(=O)(Nc1cccc(Br)c1)Oc1ccccc1 (centres undefined) | 0.97
31 | Cc1cc(C)cc(OP(C)(=O)Nc2ccccn2)c1 (centres undefined) | 0.69
32 | CCOP(=O)(Nc1cccc2ccccc12)OCC | 1.03
33 | COc1ccccc1OP(C)(=O)Nc1cccc(Br)c1 (centres undefined) | 0.98
34 | COc1cc(C(=O)NCC2(N3CCOCC3)CCCCC2)cc(Cl)c1OC(C)C | 0.88
35 | O=[As](O)(O)c1cccnc1 | 1.02
36 | O=C(OC1CN2CCC1CC2)c1ccc(Cl)cc1 (centres undefined) | 1.02
37 | CCOC(=O)c1ccc(NP(C)(=O)Oc2cc(C)cc(C)c2)cc1 (centres undefined) | 0.76
38 | Cc1cc(C)cc(OP(C)(=O)Nc2ccc(C)cc2C)c1 (centres undefined) | 0.8
39 | O=[As](O)(c1cccc(O)c1)c1cccc(O)c1 | 1.04
40 | Cc1cccc(OCC(=O)OC2CN3CCC2CC3)c1 (centres undefined) | 1.01
41 | NC(=O)Nc1ccc([As](=O)(O)O)cc1 | 0.91
42 | CN(C(=O)Cc1ccc(Cl)c(Cl)c1)[C@H]1CC[C@@]2(CCCO2)C[C@@H]1N1CCCC1 | 0.83
43 | CC1=NCCc2c1[nH]c1ccccc21.O=[N+]([O-])c1cc([N+](=O)[O-])c(O)c([N+](=O)[O-])c1 | 1.05
44 | O=[N+]([O-])c1ccc2c(c1)nnn2O | 1.01
45 | CCOP1(=S)c2c(C)nn(CCC#N)c2N=C(c2ccc(F)cc2)N1C (centres undefined) | 0.73
46 | CN(C(=O)Cc1ccccc1)[C@@H]1CC[C@]2(CCCO2)C[C@H]1N1CCCC1 | 0.81
47 | CS(=O)(=O)c1cc([N+](=O)[O-])c2no[n+]([O-])c2c1 | 1.06
48 | O=P(Nc1nccs1)(c1ccccc1)c1nc2ccccc2s1 (centres undefined) | 1.06
49 | O=P(Nc1nccs1)(Oc1ccccc1)Oc1ccccc1 | 1.03
50 | O=C(O)c1cccc(Nc2c([N+](=O)[O-])cc([N+](=O)[O-])cc2[N+](=O)[O-])c1 | 0.94

Row | Structure (SMILES) | fold increase
51 | CCOP1(=S)c2c(C)nn(CCC#N)c2N=C(c2ccccc2F)N1C (centres undefined) | 0.84
52 | O=C(O)COc1ccc([As](=O)(O)O)cc1[N+](=O)[O-] | 1
53 | Nc1ccccc1[As](=O)(O)c1ccccc1 | 1.06
54 | CC(C)c1ccc(OP(=O)(Nc2ccccn2)Oc2ccccc2F)cc1 (centres undefined) | 0.98
55 | COc1ccccc1OP(C)(=O)Nc1ccc(C)cc1 (centres undefined) | 0.97
56 | ClCCSc1nnc(-c2cccnc2)o1 | 0.89
57 | CCOC(=O)c1ccc(NP(C)(=O)Oc2ccccc2)cc1 (centres undefined) | 0.92
58 | Cc1cc(C)cc(OP(C)(N)=O)c1 (centres undefined) | 1.12
59 | O=[N+]([O-])c1cc([N+](=O)[O-])c(-c2ccn[nH]2)s1 | 0.71
60 | CCN(CC)C(=S)SC(NC=O)C(Cl)(Cl)Cl (centres undefined) | 0.93
61 | CC(C)NC(=O)NP(=O)(Oc1ccccc1)Oc1ccccc1 | 0.95
62 | COc1ccccc1OP(C)(=O)Nc1cc(Cl)ccc1C (centres undefined) | 0.98
63 | C[As](=O)(O)c1cccc(C(=O)O)c1 | 0.95
64 | O=[As](O)(c1ccc(O)cc1)c1ccccc1O | 1.18
65 | Cc1ccc2nc3c(c(C)c2c1)CC(C(Cl)Cl)S3 (centres undefined) | 1.01
66 | O=[N+]([O-])c1ccc2c(c1)C=Nc1ccccc1O2 | 0.8
67 | Cc1cccc(C)c1OP(C)(N)=O (centres undefined) | 0.99
68 | CC(C)(C)c1ccc(OP(C)(=O)Nc2ccc(SC(F)(F)F)cc2)cc1 (centres undefined) | 0.82
69 | Cc1ccc(OP(=O)(Nc2ccc([N+](=O)[O-])cn2)Oc2ccc(C)cc2)cc1 | 0.93
70 | COc1ccc(N/C(=N/P(=O)(N2CCOCC2)N2CCOCC2)N2CCOCC2)cc1 | 0.96
71 | Cc1cc(=O)[nH]c(N[N+](=O)[O-])n1 | 0.88
72 | CCN(CC)CCCOC(=O)C(O)(c1ccccc1)c1ccccc1 | 0.9
73 | O=C(OC1CN2CCC1CC2)C12CC3CC(CC(C3)C1)C2 (centres undefined) | 0.93
74 | Cc1c2c(nc3ccccc13)SC(C(Cl)Cl)C2 (centres undefined) | 0.9

Reference: PubChem BioAssay AID1956 (SRMLSC, 2009)
